Construct, isoform or probe ends are uncertain for at least one entry. For some assays here: Negatives hold for the conditions tested. For some assays here: Weaker means in comparison with the reference protein, sequence or condition of that experiment.

In one data set the test system is hORC1-5 + hORC6. Description: pull-down via Strep-hORC1. Conditions: ORC6 not retained with ORC1-5 in presence of DNA; 25 mM HEPES-KOH pH 7.5, 250 mM KGlu, 1 mM DTT, 4 mM MgOAc, 0.1% Triton X-100, 1 mM ATP or ATPgS, 30 C; high-salt wash adds 300 mM NaCl; in-solution: HEPES-NaOH; recombinant protein.
A further data set relates to hMCM2-7 (human). The data set can be described thus: negative stain EM, in-solution loading. The following applies: double hexamers, loaded without ORC6, ATP; 25 mM HEPES-KOH pH 7.5, 250 mM KGlu, 1 mM DTT, 4 mM MgOAc, 0.1% Triton X-100, 1 mM ATP or ATPgS, 30 C; high-salt wash adds 300 mM NaCl; in-solution: HEPES-NaOH; recombinant protein; protein details: N-terminal Twin-Strep MCM2, N-terminal 8xHis MCM4; label: 5' biotin on both oligos as listed.

As for “GTTATTTTACAGATTTTATGTTTAGATCTTTTATGCTTGCTTTTCAAAAGGCCTGCAGGCAAGTGCACAAACAATACTTAAATAAATACTA (double strand) [90 bp ARS1]”, the binding result with hORC1-5 + hORC6 was “no binding”.
Consider “GCCTGCCGCGCATGCGCACGAGGCACCCGGCGCGTCTATACAGCGTGTTGCCGCCGGGGCGGAGCCCGGTCGCATCACGTGACGAAGAGTCAGCTTGTGCAACAGCGTCGGAGGCTCACTAGAAAAAAAAGGGCAGGGTCCCATGCATCGCCTGGGTC (double strand) [158 bp lamin B2]”, for which, in the data set with hMCM2-7 (human), the binding result is reported as “binds more weakly”.

(Values after article PMC11711466.)
